Hit rate of the full screen: of about 360,000 compounds, about 7,500 (2.1%) were called active. The inconclusive results got no clear call from the source; some entries with a clear call stand among them for comparison. The call rests on the fitted dose curve; in most records, active means well fitted inhibition curve with a large enough effect; inconclusive means small, poorly fitted or top-dose-only effect, or effect the other way; inactive means flat fitted curve, though single readings scatter. Where the call is inconclusive, the potency comes from a doubtful curve fit.
Assay: Nrf2 qHTS screen for inhibitors; further: nearly all actives have a fitted effect of over 60% in size
Conditions: A549 ARE-Fluc reporter, luciferase luminescence, 18-24 h; series mostly up to 46 µM
Summary of the method: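 Cells were seeded and rested 2 h, then exposed to compounds for 18-24 h. CellTiter-Fluor was read first as a viability measure. BugLite was added 15 min before the final luminescent read of ARE-luciferase activity in A549 cells.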
In the case of `O=c1oc2cc(OCc3c(F)c(F)c(F)c(F)c3F)ccc2cc1-c1ccccn1`, the Potency is reported as “inactive”.
For `O=C(COc1coc(CN2CCN(c3ccc(F)cc3)CC2)cc1=O)Nc1ccccc1`, the Potency was inconclusive: 0.092 µM [falling, full curve, poor fit].
For `CC(=O)C(C(C)=O)c1c(Cl)c(O)c(O)c2c(C(=O)c3ccccc3)coc12`, the Potency was inconclusive: 29.1 µM [falling, single point].
With `Cc1onc(-c2c(F)cccc2Cl)c1C(=O)Nc1nc2c(s1)CCCC2` the Potency was inconclusive: 18.4 µM [falling, single point].
With `COc1ccccc1NC(=O)COC(=O)c1c[nH]c2ccccc12` the Potency was inconclusive: 32.6 µM [falling, partial curve, poor fit].
With `CCOc1ccc(NC(=O)Nc2ccc3nccnc3c2)cc1` the Potency was inconclusive: 6.51 µM [falling, partial curve, poor fit].
In the case of `O=C(O)C1C2C=CC(C2)C1C(=O)Nc1ccc2c(c1)OCCO2` (stereo not drawn), the Potency is reported as inconclusive: 29.1 µM [activator, single point].
In the case of `COC(=O)C(N)Cc1ccc(O)cc1` (stereo not drawn), the Potency is reported as “inactive”.
With `COc1ccc2c(c1OC)C(=O)OC2Nc1nc(-c2ccc(-c3ccccc3)cc2)cs1` (stereo not drawn) the Potency was inconclusive: 9.2 µM [activator, partial curve].
For `CCOC(=O)C(CC)/C(C)=N\NC(=O)c1ccccc1O` (stereo not drawn), the Potency was inconclusive: 29.1 µM [activator, single point].
For `CCc1cccc(NC(=O)c2ccc(CN3C(=O)C(C)=C(c4ccc(OC)cc4)S3(=O)=O)cc2)c1`, the Potency was inconclusive: 16.4 µM [falling, partial curve, poor fit].
In the case of `Cc1cc(C(=O)N/N=C/c2ccccc2[N+](=O)[O-])c(C)o1`, the Potency is reported as inconclusive: 29.1 µM [activator, single point].
In the case of `CCOc1ccccc1NC(=O)Nc1nnc(N2CCCCCC2)s1`, the Potency is reported as inconclusive: 29.1 µM [activator, single point].
With `CC(C)CNC(=O)c1cc(-c2ccc3c(c2)OCO3)on1` the Potency was inconclusive: 1.46 µM [activator, full curve].
In the case of `COc1ccc(C(=O)NC(=S)Nc2ccc([N+](=O)[O-])cc2C)cc1OC`, the Potency is reported as inconclusive: 29.1 µM [falling, single point].
In the case of `Cc1c(C(=O)Nc2ccc3c(c2)OCO3)oc2ccccc12`, the Potency is reported as inconclusive: 3.66 µM [activator, full curve].
In the case of `OCc1c(OCc2cccc(F)c2)ccc2ccccc12`, the Potency is reported as inconclusive: 29.1 µM [activator, single point].
In the case of `Cn1nc(CC(=O)NC2CCCCC2)c2ccccc2c1=O`, the Potency is reported as inconclusive: 29.1 µM [falling, single point].
With `C/C(=N\NC(=O)c1ccc(CSc2nncn2C)cc1)c1cccs1` the Potency was inconclusive: 3.66 µM [activator, full curve].
With `CN(Cc1ccccc1)C(=O)c1ccc(NC(=O)Cc2cccc(NC(=O)C3CCCN(C(=O)C4CCCCC4)C3)c2)cc1` (stereo not drawn) the Potency was inconclusive: 13 µM [falling, partial curve].
In the case of `O=C(O)c1ccc2c(c1)C(=O)N([C@]1(C(=O)O)CC1c1ccccc1)C2=O` (stereo partly drawn), the Potency is reported as “inactive”.
With `CC(C)CCN(Cc1ccco1)C(=O)c1cc2c(Cl)nc3ccccc3c2s1` the Potency was “inactive”.
For `CCc1nnc(NS(=O)(=O)c2ccc(N/C=C\C(=O)c3ccc4ccccc4c3)cc2)s1`, the Potency was inconclusive: 2.59 µM [falling, full curve].
For `CSc1nsc(SCC(=O)Nc2nc3ccc(C)cc3s2)n1`, the Potency was inconclusive: 10.3 µM [activator, partial curve].
For `COc1ccc([N+](=O)[O-])cc1NC(=S)NC(NC(=O)Cc1ccc(OC)c(OC)c1)C(Cl)(Cl)Cl` (stereo not drawn), the Potency was inconclusive: 23.1 µM [falling, single point].
For `OC1(c2cccc(C(F)(F)F)c2)CCN(Cc2nc(-c3cnccn3)no2)CC1`, the Potency was inconclusive: 0.13 µM [falling, full curve, poor fit].
In the case of `Cc1noc(C)c1CCC(=O)N1CCCC(CO)(Cc2ccccc2)C1` (stereo not drawn), the Potency is reported as inconclusive: 8.2 µM [activator, partial curve].
With `Cc1occc1C(=O)NNC(=O)c1ccccc1C(=O)O` the Potency was inconclusive: 18.4 µM [activator, single point].
For `CCNS(=O)(=O)c1ccc(NC(=O)c2cc(C(F)(F)F)nn2C)cc1`, the Potency was inconclusive: 0.82 µM [falling, full curve, poor fit].
In the case of `O=C(Nc1ccc(Br)cn1)c1cccc(C(=O)Nc2ccc(Br)cn2)c1`, the Potency is reported as inconclusive: 6.51 µM [activator, partial curve].
For `Cc1cc(C(=O)COc2cccnc2[N+](=O)[O-])c(C)n1Cc1ccco1`, the Potency was inconclusive: 2.31 µM [activator, partial curve].
For `COc1cccc(N/C(SCc2ccccc2C)=C(/C#N)C(=O)NCc2cccs2)c1`, the Potency was inconclusive: 23.1 µM [falling, partial curve, poor fit].
In the case of `O=C(COC(=O)c1ccccc1C(=O)c1ccc(Cl)c([N+](=O)[O-])c1)NC1CCCCCC1`, the Potency is reported as active: 20.6 µM.
In the case of `c1ccc(-c2ccc(-c3nc(-c4cccnc4)no3)cc2)cc1`, the Potency is reported as inconclusive: 23.1 µM [activator, partial curve].
For `CCCCN1C(=O)C2(NNc3ccccc3O2)c2ccccc21` (stereo not drawn), the Potency was inconclusive: 29.1 µM [activator, single point].
In the case of `O=C(CSc1ncnc2scc(-c3ccccc3)c12)Nc1ccc(C(=O)O)cc1`, the Potency is reported as inconclusive: 1.03 µM [falling, full curve, poor fit].
With `COC(=O)c1sc(N)c(C(=O)OC)c1COC(=O)C12CC3CC(CC(O)(C3)C1)C2` the Potency was inconclusive: 14.6 µM [falling, single point].
With `COc1ccc(-c2ccc3c(N)c(C(=O)Nc4cc(F)ccc4C)sc3n2)cc1` the Potency was inconclusive: 1.03 µM [activator, full curve].
In the case of `COCCN(C(=O)CCC(=O)Nc1cc(C)on1)C(C(=O)NC(C)(C)C)c1ccccc1Cl` (stereo not drawn), the Potency is reported as “inactive”.
With `CCn1cc(C(=O)N2CCN(c3cc(C)ccc3C)CC2)c(=O)c2cc(S(=O)(=O)N(C)C3CCCCC3)ccc21` the Potency was active: 23.1 µM.
In the case of `O=C(Nc1ccccc1)c1cc2ccccc2o1`, the Potency is reported as inconclusive: 1.64 µM [activator, full curve].
For `CC(=O)N1CC(c2ccccc2)C(c2ccc(Cl)cc2)=N1` (stereo not drawn), the Potency was “inactive”.
In the case of `CCc1ccc(NC(=O)Nc2cccc(OC)c2)cc1`, the Potency is reported as inconclusive: 29.1 µM [activator, single point].
In the case of `C#CCn1c(=NC(=O)c2ccccc2[N+](=O)[O-])sc2cc(S(C)(=O)=O)ccc21`, the Potency is reported as inconclusive: 29.1 µM [falling, partial curve, poor fit].
In the case of `Cc1ccc(-c2cc(C(=O)NCCc3ccccc3)c3c(-c4ccc(C)cc4)[nH]nc3n2)cc1`, the Potency is reported as inconclusive: 6.51 µM [activator, single point].
For `COc1ccccc1/C=C/C(=O)c1ccccc1`, the Potency was inconclusive: 16.4 µM [activator, single point].
In the case of `CCOC(=O)COc1c(OC)cc(Cl)cc1C1Nc2ccccc2C(=O)N1c1ccc(F)cc1` (stereo not drawn), the Potency is reported as “inactive”.
In the case of `CCOc1cc(/C=N/n2c(C)nnc2C)ccc1O`, the Potency is reported as inconclusive: 2.06 µM [falling, full curve, poor fit].
In the case of `O=C(O)c1ccc(-c2nnc(-c3cccc(Br)c3)o2)cc1`, the Potency is reported as inconclusive: 1.16 µM [activator, full curve, poor fit].
In the case of `COc1ccc(N2C(=O)CSC23C(=O)Nc2ccccc23)cc1OC` (stereo not drawn), the Potency is reported as inconclusive: 0.164 µM [falling, full curve, poor fit].
With `Cc1cc(C)nc(SCCC(=O)Nc2ccccc2Cl)n1` the Potency was active: 11.6 µM.
For `Cc1cccc(OCc2nnc(SCC(=O)N3CC(=O)Nc4ccccc43)o2)c1`, the Potency was inconclusive: 13 µM [falling, partial curve, poor fit].
In the case of `CC1CC1c1ccc(/C=C(\C#N)C(=O)Nc2ccc(Cl)cc2)o1` (stereo not drawn), the Potency is reported as inconclusive: 2.59 µM [activator, partial curve, poor fit].
With `O=C1C(Cl)=C(NCCCN2CCOCC2)C(=O)c2ccccc21` the Potency was inconclusive: 23.1 µM [falling, single point].
In the case of `C[C@]12c3[nH]c4cc(-c5ccco5)ccc4c3CCN1C(=O)[C@@H](CC(=O)NCCC1=CCCCC1)C[C@@H]2C(=O)N1CCOCC1`, the Potency is reported as inconclusive: 29.1 µM [falling, single point].
With `CC1CC(C)CN(CCCNC(=O)c2ccc3nc(N4CCCCC4)sc3c2)C1` (stereo not drawn) the Potency was inconclusive: 1.46 µM [activator, full curve, poor fit].
In the case of `COc1cccc(-n2cc(C(=O)NCc3cccc(Cl)c3)c3ccccc3c2=O)c1`, the Potency is reported as “inactive”.
In the case of `O=C(Nc1ccc2c(c1)CCC2)c1ccc(Br)s1`, the Potency is reported as inconclusive: 0.82 µM [activator, full curve].
For `Cn1cc(-c2nnc(-c3ccccc3)o2)c2ccccc21`, the Potency was inconclusive: 6.51 µM [activator, partial curve].
With `O=C(Nc1ccc(CN2CCS(=O)(=O)CC2)cc1)c1ccc(C(F)(F)F)cc1` the Potency was active: 18.4 µM.
In the case of `COc1ccc(S(=O)(=O)Nc2cc3c(cc2NCc2ccccc2)n(C)c(=O)n3C)cc1OC`, the Potency is reported as inconclusive: 14.6 µM [falling, partial curve, poor fit].
For `CCOc1ccc(/C=N/NC(=O)c2cc3c(OC)cccc3[nH]2)cc1`, the Potency was inconclusive: 29.1 µM [falling, single point].
In the case of `Cc1c(OCC(=O)NCCCN2CCCC2=O)ccc2c3c(c(=O)oc12)CCC3`, the Potency is reported as inconclusive: 20.6 µM [falling, partial curve, poor fit].

Reference: PubChem BioAssay AID504444 (National Center for Advancing Translational Sciences (NCATS), 2011)
Potency means the concentration at half of the fitted maximal effect.
